According to publication PMC4608684:
These are yes or no findings as the source states them, for the method shown. In cells and extracts the contact can be indirect. Some results given as binding are weak or reduced against the parent protein; the word gives no strength. Tags and fused reporters may be left off the sequences shown.

T1: His6-Cpr7 (purified, from pET29bHTV-CPR7) (S. cerevisiae) (UniProt P47103)
T1 sequence: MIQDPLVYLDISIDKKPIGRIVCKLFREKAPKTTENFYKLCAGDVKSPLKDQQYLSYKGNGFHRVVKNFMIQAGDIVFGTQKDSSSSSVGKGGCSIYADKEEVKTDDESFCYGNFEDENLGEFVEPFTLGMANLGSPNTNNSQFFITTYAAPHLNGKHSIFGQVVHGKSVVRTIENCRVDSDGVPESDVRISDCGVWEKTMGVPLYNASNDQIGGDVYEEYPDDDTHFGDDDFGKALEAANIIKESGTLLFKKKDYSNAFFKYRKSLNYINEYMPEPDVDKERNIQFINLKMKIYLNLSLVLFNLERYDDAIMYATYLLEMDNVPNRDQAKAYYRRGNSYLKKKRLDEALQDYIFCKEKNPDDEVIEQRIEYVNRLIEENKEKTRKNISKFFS

T2: His6-Cpr7 (expressed in yeast from pRS413PTEF-His6-CPR7) (S. cerevisiae) (UniProt P47103)
T2 sequence: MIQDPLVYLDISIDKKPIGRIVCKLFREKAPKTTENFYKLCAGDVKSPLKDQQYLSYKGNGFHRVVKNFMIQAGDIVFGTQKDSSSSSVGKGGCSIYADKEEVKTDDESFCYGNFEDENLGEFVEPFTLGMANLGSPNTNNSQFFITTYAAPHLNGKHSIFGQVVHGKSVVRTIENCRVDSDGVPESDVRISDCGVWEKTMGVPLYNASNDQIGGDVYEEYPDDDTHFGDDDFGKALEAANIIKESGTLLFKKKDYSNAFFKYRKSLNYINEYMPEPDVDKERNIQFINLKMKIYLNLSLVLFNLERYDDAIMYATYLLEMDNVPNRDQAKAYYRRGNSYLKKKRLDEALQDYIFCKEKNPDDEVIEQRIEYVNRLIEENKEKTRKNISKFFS


Assays:
[1] = target: T1, His6-Cpr7 (purified, from pET29bHTV-CPR7) (S. cerevisiae); assay: pull-down; purified His6-Cpr7 adsorbed on cobalt metal affinity resin, incubated with supernatant of yeast lysate (cells with Hsp82 or Hsp82ΔMEEVD as sole Hsp90); washed; eluted with 25 mM EDTA; immunoblot with anti-Ure2, anti-Hsp90 and anti-His6; only the target purified
[2] = target: T2, His6-Cpr7 (expressed in yeast from pRS413PTEF-His6-CPR7) (S. cerevisiae); assay: pull-down; lysate (5 mg protein) of SY187 [ure-o] co-expressing His6-Cpr7 and Ure2-GFP or GFP, loaded on cobalt metal affinity resin at 4°C for 2 h; washed; eluted with 25 mM EDTA; immunoblot with anti-GFP or anti-His6

binding [2] | Molecule | binding [1]
 | Hsp82 (expressed as sole Hsp90 in yeast) (from UniProt P02829 1-709) | binds
 | Ure2 (endogenous, yeast lysate) (protein, UniProt P23202 1-354) MMNNNGNQVSNLSNALRQVNIGNRNSNTTTDQSNINFEFSTGVNNNNNNNSSSNNNNVQNNNSGRNGSQNNDNENNIKNTLEQHRQQQQAFSDMSHVEYSRITKFFQEQPLEGYTLFSHRSAPNGFKVAIVLSELGFHYNTIFLDFNLGEHRAPEFVSVNPNARVPALIDHGMDNLSIWESGAILLHLVNKYYKETGNPLLWSDDLADQSQINAWLFFQTSGHAPMIGQALHFRYFHSQKIASAVERYTDEVRRVYGVVEMALAERREALVMELDTENAAAYSAGTTPMSQSRFFDYPVWLVGDKLTIADLAFVPWNNVVDRIGINIKIEFPEVYKWTKHMMRRPAVIKALRGE | binds
binds | Ure2-GFP (expressed in yeast from pRS426PGPD-URE2-GFP) (protein, UniProt P23202 1-354) MMNNNGNQVSNLSNALRQVNIGNRNSNTTTDQSNINFEFSTGVNNNNNNNSSSNNNNVQNNNSGRNGSQNNDNENNIKNTLEQHRQQQQAFSDMSHVEYSRITKFFQEQPLEGYTLFSHRSAPNGFKVAIVLSELGFHYNTIFLDFNLGEHRAPEFVSVNPNARVPALIDHGMDNLSIWESGAILLHLVNKYYKETGNPLLWSDDLADQSQINAWLFFQTSGHAPMIGQALHFRYFHSQKIASAVERYTDEVRRVYGVVEMALAERREALVMELDTENAAAYSAGTTPMSQSRFFDYPVWLVGDKLTIADLAFVPWNNVVDRIGINIKIEFPEVYKWTKHMMRRPAVIKALRGE | 
